# Laboratory results: the supplement of paper PMC8728848
# This is one part of the list.
# Legend:
# Assay in all cases: glycan array binding signal (z-score within array); higher = stronger binding
# Details in all cases: glycan notation: IUPAC condensed, linker removed
# [1] = biological target: Neu5Ac(a2-6)Gal(b1-4)GlcNAc(b1-3)Gal(b1-4)GlcNAc(b1-3)GalNAc
# In short: (§1)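 The binding signal is a Z-score computed within each array and averaged over linkers. Arrays of the same protein sequence at different concentrations or buffers were also averaged together. Data originate from 3228 arrays in the Consortium for Functional Glycomics database, kept only where the protein sequence was available.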
# [2] = biological target: Neu5Ac(a2-6)Gal(b1-4)GlcNAc(b1-3)Gal(b1-4)GlcNAc(b1-3)[Neu5Ac(a2-6)Gal(b1-4)GlcNAc(b1-3)Gal(b1-4)GlcNAc(b1-6)]GalNAc
# In short: as §1
# [3] = biological target: Neu5Ac(a2-6)Gal(b1-4)GlcNAc(b1-3)Gal(b1-4)GlcNAc(b1-6)[Gal(b1-3)]GalNAc
# In short: as §1
# [4] = biological target: Neu5Ac(a2-6)Gal(b1-4)GlcNAc(b1-3)Gal(b1-4)[Fuc(a1-3)]GlcNAc(b1-3)Gal(b1-4)[Fuc(a1-3)]GlcNAc
# In short: as §1
# [5] = biological target: Neu5Ac(a2-6)Gal(b1-4)GlcNAc(b1-3)GalNAc
# In short: as §1
# [6] = biological target: Neu5Ac(a2-6)Gal(b1-4)GlcNAc(b1-3)[Neu5Ac(a2-6)Gal(b1-4)GlcNAc(b1-6)]GalNAc
# In short: as §1
# [7] = biological target: Neu5Ac(a2-6)Gal(b1-4)GlcNAc(b1-6)GalNAc
# In short: as §1
# [8] = biological target: Neu5Ac(a2-6)Gal(b1-4)GlcNAc(b1-6)[Gal(b1-3)GlcNAc(b1-3)]Gal(b1-4)Glc
# In short: as §1
# [9] = biological target: Neu5Ac(a2-6)Gal(b1-4)GlcNAc(b1-6)[Gal(b1-3)]GalNAc
# In short: as §1
# [10] = biological target: Neu5Ac(a2-6)Gal(b1-4)GlcNAc6S
# In short: as §1
# Neu5Ac(a2-6)GalNAc = biological target: Neu5Ac(a2-6)GalNAc
# In short: as §1
# [11] = biological target: Neu5Ac(a2-6)GalNAc(b1-4)GlcNAc
# In short: as §1
# [12] = biological target: Neu5Ac(a2-6)GalNAc(b1-4)GlcNAc6S
# In short: as §1
# [13] = biological target: Neu5Ac(a2-6)GlcNAc(b1-4)GlcNAc
# In short: as §1
# [14] = biological target: Neu5Ac(a2-6)GlcNAc(b1-4)GlcNAc(b1-4)GlcNAc
# In short: as §1
# Neu5Ac(a2-8)Neu5Ac = biological target: Neu5Ac(a2-8)Neu5Ac
# In short: as §1
# [15] = biological target: Neu5Ac(a2-8)Neu5Ac(a2-3)Gal(b1-3)GalNAc(b1-4)[Neu5Ac(a2-3)]Gal(b1-4)Glc
# In short: as §1
# [16] = biological target: Neu5Ac(a2-8)Neu5Ac(a2-3)Gal(b1-3)GalNAc(b1-4)[Neu5Ac(a2-8)Neu5Ac(a2-3)]Gal(b1-4)Glc
# In short: as §1
# [17] = biological target: Neu5Ac(a2-8)Neu5Ac(a2-3)Gal(b1-4)Glc
# In short: as §1
# [18] = biological target: Neu5Ac(a2-8)Neu5Ac(a2-3)Gal(b1-4)GlcNAc
# In short: as §1
# [19] = biological target: Neu5Ac(a2-8)Neu5Ac(a2-3)[Gal(b1-3)GalNAc(b1-4)]Gal(b1-4)Glc
# In short: as §1
# [20] = biological target: Neu5Ac(a2-8)Neu5Ac(a2-3)[GalNAc(b1-4)]Gal(b1-4)Glc
# In short: as §1
# [21] = biological target: Neu5Ac(a2-8)Neu5Ac(a2-8)Neu5Ac
# In short: as §1
# [22] = biological target: Neu5Ac(a2-8)Neu5Ac(a2-8)Neu5Ac(a2-3)Gal(b1-4)Glc
# In short: as §1
# [23] = biological target: Neu5Ac(a2-8)Neu5Ac(a2-8)Neu5Ac(a2-3)[Gal(b1-3)GalNAc(b1-4)]Gal(b1-4)Glc
# In short: as §1
# [24] = biological target: Neu5Ac(a2-8)Neu5Ac(a2-8)Neu5Ac(a2-3)[GalNAc(b1-4)]Gal(b1-4)Glc
# In short: as §1
# [25] = biological target: Neu5Ac(a2-8)Neu5Ac(a2-8)Neu5Ac(a2-8)Neu5Ac(a2-3)[GalNAc(b1-4)]Gal(b1-4)Glc
# In short: as §1
# [26] = biological target: Neu5Ac(a2-8)Neu5Gc(a2-3)Gal(b1-4)GlcNAc
# In short: as §1
# [27] = biological target: Neu5Ac(b2-6)Gal(b1-4)GlcNAc
# In short: as §1
# Neu5Ac(b2-6)GalNAc = biological target: Neu5Ac(b2-6)GalNAc
# In short: as §1
# [28] = biological target: Neu5Ac9Ac(a2-3)Gal(b1-4)GlcNAc
# In short: as §1
# [29] = biological target: Neu5Ac9Ac(a2-6)Gal(b1-4)GlcNAc
# In short: as §1
# [30] = biological target: Neu5Gc(a2-3)Gal(b1-3)GlcNAc
# In short: as §1
# [31] = biological target: Neu5Gc(a2-3)Gal(b1-3)[Fuc(a1-4)]GlcNAc
# In short: as §1
# Neu5Gc(a2-3)Gal(b1-4)Glc = biological target: Neu5Gc(a2-3)Gal(b1-4)Glc
# In short: as §1
# [32] = biological target: Neu5Gc(a2-3)Gal(b1-4)GlcNAc
# In short: as §1
# [33] = biological target: Neu5Gc(a2-3)Gal(b1-4)GlcNAc(b1-3)Gal(b1-4)GlcNAc(b1-2)Man(a1-3)[Neu5Gc(a2-3)Gal(b1-4)GlcNAc(b1-3)Gal(b1-4)GlcNAc(b1-2)Man(a1-6)]Man(b1-4)GlcNAc(b1-4)GlcNAc
# In short: as §1
# [34] = biological target: Neu5Gc(a2-3)Gal(b1-4)[Fuc(a1-3)]GlcNAc
# In short: as §1
# [35] = biological target: Neu5Gc(a2-6)Gal(b1-4)GlcNAc
# In short: as §1
# Neu5Gc(a2-6)GalNAc = biological target: Neu5Gc(a2-6)GalNAc
# In short: as §1
# [36] = biological target: Neu5Gc(a2-8)Neu5Ac(a2-3)Gal(b1-4)GlcNAc
# In short: as §1
# [37] = biological target: Neu5Gc(a2-8)Neu5Gc(a2-3)Gal(b1-4)GlcNAc
# In short: as §1
# [38] = biological target: Neu5Gc(a2-8)Neu5Gc(a2-3)Gal(b1-4)GlcNAc(b1-3)Gal(b1-4)GlcNAc
# In short: as §1
# [39] = biological target: Neu5Gc(a2-8)Neu5Gc(a2-6)Gal(b1-4)GlcNAc
# In short: as §1
# [40] = biological target: Neu5Gc(b2-6)Gal(b1-4)GlcNAc
# In short: as §1
binder,measurement,setting,value
Epf (Streptococcus pyogenes) (protein) GDHGPEFNGVMVVKAAEAEELPDDLMNFKGTWEVSADGSSGRFFSKGATDSYVFHLIPAKDVKKPGWREHNEVKDSYIKIDKQSIAARYKTSTTAPYSVAFKVNTKSLIKDHDYKITFEQGQIASGITVDYRIGSAFNKTTDDSFKISDESKYASNVKIEGEEQGFKQREQGDKTISFRTLKEGPMSLVLLSKVEKKPQGDLDVEFKNLKIIDVTNPSQLDKGVAYVGNKNVQLTLKSDDGRTNFEGDEISLFNSRGELLQTVTVTKDQQNPISITLSEDQAKSLKNKEKLKVSIKQKQSKKTSKDFFFEVGIDPKVEAKQKEKLLELDKVKKQIEDSINGDAWLPEKPVDLQGDHGLSAWSHPQFEK,glycan array binding signal (z-score),[1],0.574
same,glycan array binding signal (z-score),[2],-0.232
same,glycan array binding signal (z-score),[3],-1.02
same,glycan array binding signal (z-score),[4],0.012
same,glycan array binding signal (z-score),[5],0.219
same,glycan array binding signal (z-score),[6],0.285
same,glycan array binding signal (z-score),[7],-1.11
same,glycan array binding signal (z-score),[8],-0.066
same,glycan array binding signal (z-score),[9],-0.596
same,glycan array binding signal (z-score),[10],-0.463
same,glycan array binding signal (z-score),Neu5Ac(a2-6)GalNAc,-1.81
same,glycan array binding signal (z-score),[11],-0.834
same,glycan array binding signal (z-score),[12],-1.72
same,glycan array binding signal (z-score),[13],-1.5
same,glycan array binding signal (z-score),[14],0.539
same,glycan array binding signal (z-score),Neu5Ac(a2-8)Neu5Ac,0.246
same,glycan array binding signal (z-score),[15],-1.52
same,glycan array binding signal (z-score),[16],1.22
same,glycan array binding signal (z-score),[17],0.281
same,glycan array binding signal (z-score),[18],0.505
same,glycan array binding signal (z-score),[19],-0.085
same,glycan array binding signal (z-score),[20],-0.115
same,glycan array binding signal (z-score),[21],-0.377
same,glycan array binding signal (z-score),[22],0.188
same,glycan array binding signal (z-score),[23],-1.46
same,glycan array binding signal (z-score),[24],-0.346
same,glycan array binding signal (z-score),[25],0.295
same,glycan array binding signal (z-score),[26],-0.244
same,glycan array binding signal (z-score),[27],0.577
same,glycan array binding signal (z-score),Neu5Ac(b2-6)GalNAc,1.59
same,glycan array binding signal (z-score),[28],-1.12
same,glycan array binding signal (z-score),[29],-1.44
same,glycan array binding signal (z-score),[30],-0.581
same,glycan array binding signal (z-score),[31],0.995
same,glycan array binding signal (z-score),Neu5Gc(a2-3)Gal(b1-4)Glc,0.325
same,glycan array binding signal (z-score),[32],0.422
same,glycan array binding signal (z-score),[33],0.343
same,glycan array binding signal (z-score),[34],0.984
same,glycan array binding signal (z-score),[35],-0.146
same,glycan array binding signal (z-score),Neu5Gc(a2-6)GalNAc,-0.652
same,glycan array binding signal (z-score),[36],-0.143
same,glycan array binding signal (z-score),[37],-1.11
same,glycan array binding signal (z-score),[38],-0.239
same,glycan array binding signal (z-score),[39],0.764
same,glycan array binding signal (z-score),[40],1.03

# 2 entries picked at random from those above, as already listed:
binder,measurement,setting,value
Epf (Streptococcus pyogenes) (protein) GDHGPEFNGVMVVKAAEAEELPDDLMNFKGTWEVSADGSSGRFFSKGATDSYVFHLIPAKDVKKPGWREHNEVKDSYIKIDKQSIAARYKTSTTAPYSVAFKVNTKSLIKDHDYKITFEQGQIASGITVDYRIGSAFNKTTDDSFKISDESKYASNVKIEGEEQGFKQREQGDKTISFRTLKEGPMSLVLLSKVEKKPQGDLDVEFKNLKIIDVTNPSQLDKGVAYVGNKNVQLTLKSDDGRTNFEGDEISLFNSRGELLQTVTVTKDQQNPISITLSEDQAKSLKNKEKLKVSIKQKQSKKTSKDFFFEVGIDPKVEAKQKEKLLELDKVKKQIEDSINGDAWLPEKPVDLQGDHGLSAWSHPQFEK,glycan array binding signal (z-score),[10],-0.463
same,glycan array binding signal (z-score),[29],-1.44
